Measurements reported in paper PMC6299225.

Target: His-PRO (recombinant TbPRMT1 prozyme subunit) (T. brucei)
Test: co-purification by nickel affinity after coexpression; ENZ and His-PRO coexpressed in E. coli, complex purified by nickel affinity

binding: binds
B1: ENZ (recombinant TbPRMT1 enzymatic subunit, coexpressed with His-PRO) (protein, UniProt Q4GYA9 1-345)
chain: MTVDANAASSTTTTTDYYFDSYSHYGIHMEMLKDCHRTTSYRDAMWRNAYLFKDKVVLDVGCGTGILSMFAAKAGARKVIGVDCSTVAVQAREIVRDNGFEDVITIIQGKVEEIQLDEKVDIIISEWMGYFLLYESMLNTVLYARDNLGTPDVKMFPDKANMHVCGITDEQYIQERFNIWDNVQGIDFSYFKRLSFIEPLVDTVERSQIVTNVAPLVSFDINTVKEADLSFTSEFALEAQASRGKRNGGNSIIYVHALSVHFDTPFTAGHEVVILDTTPYSPPTHWRQTVLYLFNPLRMRAGERATFRMKCSPNALNGRDLDISLHVDFEGALQISHYDQDFRLR

No constants are given. Whether binding was seen depends on the method and setting. In cells and extracts the contact can be indirect. Binding calls can cover weak binding; strength is not graded here. Where a sequence is shown, tags or fusion partners need not be part of it.
